Source: PubChem BioAssay AID330 (DTP/NCI, 2004)
The list does not hold the whole screen: it is rich in T/C values a quarter to a half above the control, in often repeated tests (any T/C) and in doses without a T/C. Other doses and runs of a compound stand elsewhere. T/C is the treated group as % of the vehicle group. Some entries give survivors of the animals treated and no T/C: the source files T/C as zero there, which appears to mark a toxic dose or a test without result, not a measured value. Some doses without a T/C left all or most animals alive at the check, yet need not have been tolerated: the source hardly ever lists a survival T/C far under the control, and the zero likely stands for such cases as well. Counts of survivors are from the toxicity check (mostly the fifth day) where no day follows; animals may have died later. Schedules are NCI's codes, read here as Q, the interval in days (D) or hours (H), X, the number of doses. Some doses were run more than once; their values stand side by side, smallest first. For survival time, this PubChem deposit counts one and a half times the control or more as active, and values a quarter to a half above the control carry no call in these data; other NCI protocols may use other cut-offs. Some T/C values are followed by the survivors on the day toxicity was checked, most often the fifth; without a count, all were alive then. Additions like (4×) give the number of equal values in this list.

Tested on: P388 leukemia ip, CD2F1 mice, survival T/C
Assay: NCI In Vivo Anticancer Drug Screen. Data for tumor model P388 Leukemia (intraperitoneal) in CD2F1 (CDF1) mice
Details: T/C endpoint: median survival time, vehicle: Klucel (hydroxypropylcellulose) (HPC), higher T/C = longer survival
[1] = dose: 50.0 mg/kg/injection, schedule: Q01DX001 (ip)
[2] = dose: 100.0 mg/kg/injection, schedule: Q01DX001 (ip)
[3] = dose: 200.0 mg/kg/injection, schedule: Q01DX001 (ip)
[4] = dose: 400.0 mg/kg/injection, schedule: Q01DX001 (ip)

With `O=C1C=CN(C2OC(CO)C(O)C2O)C(=O)C1` (configuration not stated) the T/C [1] was 95, 96 (3×), 98 (3×), 99 (2×), 100 (4×), 100 [4 of 6 alive], 101, 102 (3×), 103, 107 (2×), 108, 109 (3×), 110, 112, 113, 115, 118 % of control, the survivor count [1] was 6 of 6 and the T/C (dose: 50.0 mg/kg/injection, schedule: Q01DX005 (ip), evaluated on day 30) was 91, 96, 107 (2×), 109, 111, 113 (2×), 114 (2×), 114 [5 of 6 alive], 115, 117, 119 (2×), 120 (2×), 121 (2×), 122, 123 (3×), 125, 126, 127, 128 (3×), 129, 132, 140 % of control. The T/C (dose: 50.0 mg/kg/injection, schedule: Q01DX005 (ip), evaluated on day 35) was 140 % of control [5 of 6 alive], the T/C (dose: 50.0 mg/kg/injection, schedule: Q01DX009 (ip), evaluated on day 30) was 96, 98 (2×), 100 (2×), 106 (2×), 107 (3×), 108, 109 [5 of 6 alive], 110, 117 (2×), 118, 119 (3×), 120 [2 of 3 alive], 121, 122, 125, 127 (4×), 128 (2×), 129 (2×), 130, 131 % of control and the T/C (dose: 50.0 mg/kg/injection, schedule: Q01DX009 (ip), evaluated on day 35) was 100 and 104 % of control. The T/C (dose: 50.0 mg/kg/injection, schedule: Q04DX002 (ip), evaluated on day 30) was 91, 98 [4 of 6 alive], 99, 100, 101 (2×), 102 (2×), 104, 105, 106, 107, 108 (3×), 109 (3×), 110 (4×), 112 (3×), 113, 116, 117 (2×), 118, 119, 120, 134 % of control, the T/C (dose: 50.0 mg/kg/injection, schedule: Q04DX002 (ip), evaluated on day 35) was 90 [5 of 6 alive], 104, 109 % of control and the survivor count (dose: 50.0 mg/kg/injection, schedule: Q04DX002 (ip)) was 5 of 6 and 3 of 3. The T/C (dose: 50.0 mg/kg/injection, schedule: Q04DX003 (ip)) was 98, 99, 100, 102 (2×), 103 (2×), 104 (5×), 105, 106 (3×), 107 (2×), 108 (3×), 109 (2×), 110, 111 (2×), 112, 113, 114 (3×), 115, 118, 122 % of control, the T/C [2] was 90, 93, 94, 96 (3×), 98, 99, 99 [2 of 3 alive], 100, 101 (2×), 103, 104 (2×), 105 (4×), 107, 108 (2×), 109 (2×), 110, 112, 113 (2×), 115 (2×), 117 % of control and the survivor count [2] was 6 of 6. The T/C (dose: 100.0 mg/kg/injection, schedule: Q01DX005 (ip), evaluated on day 30) was 86, 93, 100, 103, 109, 115, 116, 117 (2×), 118, 119 (4×), 120, 121, 122 (2×), 123 (4×), 124 (2×), 128 (2×), 131, 132, 133, 134, 139, 151 % of control, the T/C (dose: 100.0 mg/kg/injection, schedule: Q01DX005 (ip), evaluated on day 35) was 94 % of control and the T/C (dose: 100.0 mg/kg/injection, schedule: Q01DX009 (ip), evaluated on day 30) was 89, 93 [5 of 6 alive], 94, 100 (3×), 102, 106, 107 (2×), 107 [5 of 6 alive], 108 (2×), 112 (3×), 117 (2×), 118 (2×), 119, 120, 122, 123 (2×), 125, 127, 129, 130, 144, 145, 150 % of control. The T/C (dose: 100.0 mg/kg/injection, schedule: Q01DX009 (ip), evaluated on day 35) was 112 [5 of 6 alive] and 119 % of control, the survivor count (dose: 100.0 mg/kg/injection, schedule: Q01DX009 (ip)) was 5 of 6 and the T/C (dose: 100.0 mg/kg/injection, schedule: Q04DX002 (ip), evaluated on day 30) was 101 (2×), 102, 103 (2×), 104 (3×), 105 (3×), 106, 107 (3×), 108, 108 [2 of 3 alive], 109 (2×), 110 (6×), 111, 113 (2×), 115 (2×), 117 (2×), 118 % of control. The T/C (dose: 100.0 mg/kg/injection, schedule: Q04DX002 (ip), evaluated on day 35) was 96, 102, 118 % of control, the survivor count (dose: 100.0 mg/kg/injection, schedule: Q04DX002 (ip)) was 3 of 3 and 6 of 6 and the T/C (dose: 100.0 mg/kg/injection, schedule: Q04DX003 (ip)) was 95, 96, 102 (3×), 104 (2×), 106, 107, 108 (6×), 109, 110 (3×), 111 (2×), 112, 113 (3×), 114 (2×), 115 (3×), 116, 117, 121, 125 % of control. For the same compound, the T/C [3] was 89, 95, 96, 101, 102, 103 (3×), 103 [2 of 3 alive], 104 (2×), 105 (3×), 106 (3×), 107 (3×), 108 (3×), 109 (2×), 110 (2×), 111, 113 (2×), 114 % of control, the survivor count [3] was 6 of 6 and the T/C (dose: 200.0 mg/kg/injection, schedule: Q01DX005 (ip), evaluated on day 30) was 111, 112, 114 (2×), 115 (3×), 116 (2×), 122 (4×), 123, 125 (2×), 126, 128 (2×), 130, 132, 133 (2×), 134 (2×), 137, 138, 147 % of control. The T/C (dose: 200.0 mg/kg/injection, schedule: Q01DX005 (ip), evaluated on day 35) was 87 % of control, the survivor count (dose: 200.0 mg/kg/injection, schedule: Q01DX005 (ip)) was 3 of 3 and 6 of 6 and the T/C (dose: 200.0 mg/kg/injection, schedule: Q01DX009 (ip), evaluated on day 30) was 89, 90, 93, 94, 97 (3×), 99, 100, 103, 106, 108, 110 (2×), 111, 112 (3×), 113, 114 (3×), 116, 119, 121, 123, 126, 127 (2×), 129 % of control (2×). For the same compound, the T/C (dose: 200.0 mg/kg/injection, schedule: Q01DX009 (ip), evaluated on day 35) was 98 and 114 % of control, the survivor count (dose: 200.0 mg/kg/injection, schedule: Q01DX009 (ip)) was 2 of 3 and 3 of 3 and the T/C (dose: 200.0 mg/kg/injection, schedule: Q04DX002 (ip), evaluated on day 30) was 94, 95, 99, 102, 103, 105 (2×), 106 (2×), 107 (4×), 108 (4×), 109 (4×), 110 (4×), 111 (2×), 113 (3×), 117, 118, 128 % of control. For the same compound, the T/C (dose: 200.0 mg/kg/injection, schedule: Q04DX002 (ip), evaluated on day 35) was 100, 104, 109 % of control, the survivor count (dose: 200.0 mg/kg/injection, schedule: Q04DX002 (ip)) was 3 of 3 and 6 of 6 and the T/C (dose: 200.0 mg/kg/injection, schedule: Q04DX003 (ip)) was 100, 101, 102, 104, 106 (3×), 106 [2 of 3 alive], 107, 108 (2×), 109, 110 (2×), 113 (3×), 114 (2×), 116 (7×), 117 (2×), 119, 120 (3×), 122, 126 % of control. The T/C [4] was 95, 100, 101, 102 (2×), 104 (3×), 104 [5 of 6 alive], 105 (2×), 106 (2×), 106 [5 of 6 alive], 107 (2×), 108 (2×), 109, 110 (3×), 111, 113 (2×), 118, 120, 121, 123, 124, 140 % of control, the survivor count [4] was 0 of 6 and the T/C (dose: 400.0 mg/kg/injection, schedule: Q01DX005 (ip), evaluated on day 30) was 86 (3×), 91, 95 [5 of 6 alive], 104, 113, 113 [5 of 6 alive], 115, 121, 123, 124, 125, 128 (2×), 129 (2×), 133 (2×), 137, 144, 175 % of control. For the same compound, the T/C (dose: 400.0 mg/kg/injection, schedule: Q01DX005 (ip), evaluated on day 35) was 93 % of control, the survivor count (dose: 400.0 mg/kg/injection, schedule: Q01DX005 (ip)) was 3 of 3 and 6 of 6 and the T/C (dose: 400.0 mg/kg/injection, schedule: Q01DX009 (ip), evaluated on day 30) was 86, 87, 88 (2×), 91, 92, 93, 94, 98, 100 (3×), 101, 102 (3×), 104, 105, 107, 109, 110, 111, 114, 116 [2 of 3 alive], 117, 119, 127, 176 % of control. For the same compound, the T/C (dose: 400.0 mg/kg/injection, schedule: Q01DX009 (ip), evaluated on day 35) was 91 and 104 % of control, the survivor count (dose: 400.0 mg/kg/injection, schedule: Q01DX009 (ip)) was 3 of 3 and 6 of 6 and the T/C (dose: 400.0 mg/kg/injection, schedule: Q04DX002 (ip), evaluated on day 30) was 99, 101, 106, 108 (5×), 109, 110 (2×), 111 (3×), 112 (3×), 113 (3×), 114 (2×), 115 (4×), 116, 117, 118, 121, 122, 123, 128 % of control. For the same compound, the T/C (dose: 400.0 mg/kg/injection, schedule: Q04DX002 (ip), evaluated on day 35) was 111, 112, 113 % of control, the survivor count (dose: 400.0 mg/kg/injection, schedule: Q04DX002 (ip)) was 3 of 3 and 6 of 6 and the T/C (dose: 400.0 mg/kg/injection, schedule: Q04DX003 (ip)) was 102, 104 (2×), 106, 108 (2×), 110 (5×), 111 (3×), 113 (3×), 114, 115 (2×), 116 (3×), 117, 119 (3×), 120, 122 (2×), 126, 128, 139, 252 % of control.
`CCOC(=O)N1C=CC2(C=C1)CCCCCC2` was tested, and the survivor count (dose: 150.0 mg/kg/injection, schedule: Q04DX003 (ip)) was 3 of 6.
`O=C1C(n2ccc(=O)[nH]c2=O)CCN1CCCl` (configuration not stated) was tested, and the survivor count (dose: 50.0 mg/kg/injection, schedule: Q01DX005 (ip)) was 6 of 6.
